The values below are quoted from earlier work in patent US11168047B2, “Cocrystal of 2-[(1R,6R)-6-isopropenyl-3-methylcyclohex-2-en-1-yl]-5-pentylbenzene-l,3-diol” (ENANTIA, S.L., priority 2017, dated 2021).

The conditions of this data set: water; cited from earlier work.

Consider `C=C(C)[C@@H]1CCC(C)=C[C@H]1c1c(O)cc(CCCCC)cc1O` [CBD, 2-[(1R,6R)-6-isopropenyl-3-methylcyclohex-2-en-1-yl]-5-pentylbenzene-1,3-diol], for which the aqueous solubility entry was “about 0.1 ug/mL”.
